Five substances from paper PMC7567837 can be followed below.

The chains behind the UniProt entries cited, without tags or fusion partners.
UniProt Q05397: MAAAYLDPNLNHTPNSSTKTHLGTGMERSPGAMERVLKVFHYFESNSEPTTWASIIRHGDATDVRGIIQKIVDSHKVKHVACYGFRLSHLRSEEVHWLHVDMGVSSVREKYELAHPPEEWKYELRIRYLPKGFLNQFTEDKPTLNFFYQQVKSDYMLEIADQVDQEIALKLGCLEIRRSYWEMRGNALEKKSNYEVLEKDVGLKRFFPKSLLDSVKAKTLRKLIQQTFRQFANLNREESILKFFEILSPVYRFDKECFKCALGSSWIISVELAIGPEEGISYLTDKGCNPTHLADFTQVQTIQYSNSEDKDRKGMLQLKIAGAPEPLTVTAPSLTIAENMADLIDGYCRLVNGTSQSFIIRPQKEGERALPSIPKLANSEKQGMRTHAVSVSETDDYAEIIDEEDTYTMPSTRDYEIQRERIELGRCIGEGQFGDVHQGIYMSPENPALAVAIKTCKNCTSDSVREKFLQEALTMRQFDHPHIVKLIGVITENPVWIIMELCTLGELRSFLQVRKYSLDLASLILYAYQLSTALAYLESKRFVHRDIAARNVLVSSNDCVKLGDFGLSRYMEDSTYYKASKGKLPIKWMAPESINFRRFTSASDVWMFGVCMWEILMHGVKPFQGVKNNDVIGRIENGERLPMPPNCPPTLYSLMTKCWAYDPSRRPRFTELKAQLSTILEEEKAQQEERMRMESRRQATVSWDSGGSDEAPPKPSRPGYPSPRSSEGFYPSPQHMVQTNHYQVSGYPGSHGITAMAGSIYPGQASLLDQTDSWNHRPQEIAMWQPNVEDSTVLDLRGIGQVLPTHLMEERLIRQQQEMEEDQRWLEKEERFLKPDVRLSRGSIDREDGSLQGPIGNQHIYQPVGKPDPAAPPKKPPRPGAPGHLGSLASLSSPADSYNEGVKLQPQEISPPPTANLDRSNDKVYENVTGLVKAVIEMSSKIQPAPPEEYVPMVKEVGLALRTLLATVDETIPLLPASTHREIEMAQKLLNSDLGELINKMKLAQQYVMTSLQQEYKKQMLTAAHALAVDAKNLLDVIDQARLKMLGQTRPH
UniProt P11940: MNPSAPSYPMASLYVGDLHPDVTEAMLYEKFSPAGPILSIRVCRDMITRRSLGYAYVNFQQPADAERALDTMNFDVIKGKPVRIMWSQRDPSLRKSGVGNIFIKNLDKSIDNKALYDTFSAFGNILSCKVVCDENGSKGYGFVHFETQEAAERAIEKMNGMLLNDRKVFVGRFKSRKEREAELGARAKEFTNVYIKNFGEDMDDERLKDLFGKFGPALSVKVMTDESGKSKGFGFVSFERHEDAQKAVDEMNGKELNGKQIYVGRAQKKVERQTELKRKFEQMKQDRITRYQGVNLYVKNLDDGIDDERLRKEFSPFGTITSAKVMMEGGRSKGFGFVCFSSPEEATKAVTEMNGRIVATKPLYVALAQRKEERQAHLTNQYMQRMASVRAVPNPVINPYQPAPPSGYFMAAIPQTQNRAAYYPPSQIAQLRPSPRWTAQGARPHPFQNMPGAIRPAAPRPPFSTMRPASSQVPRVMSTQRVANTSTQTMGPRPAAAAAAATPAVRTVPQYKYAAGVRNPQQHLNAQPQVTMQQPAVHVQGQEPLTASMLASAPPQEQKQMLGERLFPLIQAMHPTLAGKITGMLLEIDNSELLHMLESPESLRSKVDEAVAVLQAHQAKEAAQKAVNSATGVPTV
UniProt P15311: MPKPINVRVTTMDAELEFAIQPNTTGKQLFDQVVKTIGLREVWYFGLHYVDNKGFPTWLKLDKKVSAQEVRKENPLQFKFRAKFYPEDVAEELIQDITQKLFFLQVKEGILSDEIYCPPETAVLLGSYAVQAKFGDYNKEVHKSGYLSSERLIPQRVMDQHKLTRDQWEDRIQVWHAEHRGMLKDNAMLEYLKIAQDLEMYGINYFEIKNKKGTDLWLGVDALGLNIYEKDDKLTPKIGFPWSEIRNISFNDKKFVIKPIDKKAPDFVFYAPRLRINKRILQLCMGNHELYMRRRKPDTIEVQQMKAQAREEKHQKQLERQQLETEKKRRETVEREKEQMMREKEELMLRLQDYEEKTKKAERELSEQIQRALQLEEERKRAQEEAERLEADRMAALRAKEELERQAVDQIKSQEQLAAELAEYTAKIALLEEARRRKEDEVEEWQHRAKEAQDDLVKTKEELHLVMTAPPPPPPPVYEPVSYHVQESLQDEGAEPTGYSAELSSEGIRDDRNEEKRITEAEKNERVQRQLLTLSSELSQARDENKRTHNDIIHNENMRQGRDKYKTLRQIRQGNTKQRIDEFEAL
UniProt P21333: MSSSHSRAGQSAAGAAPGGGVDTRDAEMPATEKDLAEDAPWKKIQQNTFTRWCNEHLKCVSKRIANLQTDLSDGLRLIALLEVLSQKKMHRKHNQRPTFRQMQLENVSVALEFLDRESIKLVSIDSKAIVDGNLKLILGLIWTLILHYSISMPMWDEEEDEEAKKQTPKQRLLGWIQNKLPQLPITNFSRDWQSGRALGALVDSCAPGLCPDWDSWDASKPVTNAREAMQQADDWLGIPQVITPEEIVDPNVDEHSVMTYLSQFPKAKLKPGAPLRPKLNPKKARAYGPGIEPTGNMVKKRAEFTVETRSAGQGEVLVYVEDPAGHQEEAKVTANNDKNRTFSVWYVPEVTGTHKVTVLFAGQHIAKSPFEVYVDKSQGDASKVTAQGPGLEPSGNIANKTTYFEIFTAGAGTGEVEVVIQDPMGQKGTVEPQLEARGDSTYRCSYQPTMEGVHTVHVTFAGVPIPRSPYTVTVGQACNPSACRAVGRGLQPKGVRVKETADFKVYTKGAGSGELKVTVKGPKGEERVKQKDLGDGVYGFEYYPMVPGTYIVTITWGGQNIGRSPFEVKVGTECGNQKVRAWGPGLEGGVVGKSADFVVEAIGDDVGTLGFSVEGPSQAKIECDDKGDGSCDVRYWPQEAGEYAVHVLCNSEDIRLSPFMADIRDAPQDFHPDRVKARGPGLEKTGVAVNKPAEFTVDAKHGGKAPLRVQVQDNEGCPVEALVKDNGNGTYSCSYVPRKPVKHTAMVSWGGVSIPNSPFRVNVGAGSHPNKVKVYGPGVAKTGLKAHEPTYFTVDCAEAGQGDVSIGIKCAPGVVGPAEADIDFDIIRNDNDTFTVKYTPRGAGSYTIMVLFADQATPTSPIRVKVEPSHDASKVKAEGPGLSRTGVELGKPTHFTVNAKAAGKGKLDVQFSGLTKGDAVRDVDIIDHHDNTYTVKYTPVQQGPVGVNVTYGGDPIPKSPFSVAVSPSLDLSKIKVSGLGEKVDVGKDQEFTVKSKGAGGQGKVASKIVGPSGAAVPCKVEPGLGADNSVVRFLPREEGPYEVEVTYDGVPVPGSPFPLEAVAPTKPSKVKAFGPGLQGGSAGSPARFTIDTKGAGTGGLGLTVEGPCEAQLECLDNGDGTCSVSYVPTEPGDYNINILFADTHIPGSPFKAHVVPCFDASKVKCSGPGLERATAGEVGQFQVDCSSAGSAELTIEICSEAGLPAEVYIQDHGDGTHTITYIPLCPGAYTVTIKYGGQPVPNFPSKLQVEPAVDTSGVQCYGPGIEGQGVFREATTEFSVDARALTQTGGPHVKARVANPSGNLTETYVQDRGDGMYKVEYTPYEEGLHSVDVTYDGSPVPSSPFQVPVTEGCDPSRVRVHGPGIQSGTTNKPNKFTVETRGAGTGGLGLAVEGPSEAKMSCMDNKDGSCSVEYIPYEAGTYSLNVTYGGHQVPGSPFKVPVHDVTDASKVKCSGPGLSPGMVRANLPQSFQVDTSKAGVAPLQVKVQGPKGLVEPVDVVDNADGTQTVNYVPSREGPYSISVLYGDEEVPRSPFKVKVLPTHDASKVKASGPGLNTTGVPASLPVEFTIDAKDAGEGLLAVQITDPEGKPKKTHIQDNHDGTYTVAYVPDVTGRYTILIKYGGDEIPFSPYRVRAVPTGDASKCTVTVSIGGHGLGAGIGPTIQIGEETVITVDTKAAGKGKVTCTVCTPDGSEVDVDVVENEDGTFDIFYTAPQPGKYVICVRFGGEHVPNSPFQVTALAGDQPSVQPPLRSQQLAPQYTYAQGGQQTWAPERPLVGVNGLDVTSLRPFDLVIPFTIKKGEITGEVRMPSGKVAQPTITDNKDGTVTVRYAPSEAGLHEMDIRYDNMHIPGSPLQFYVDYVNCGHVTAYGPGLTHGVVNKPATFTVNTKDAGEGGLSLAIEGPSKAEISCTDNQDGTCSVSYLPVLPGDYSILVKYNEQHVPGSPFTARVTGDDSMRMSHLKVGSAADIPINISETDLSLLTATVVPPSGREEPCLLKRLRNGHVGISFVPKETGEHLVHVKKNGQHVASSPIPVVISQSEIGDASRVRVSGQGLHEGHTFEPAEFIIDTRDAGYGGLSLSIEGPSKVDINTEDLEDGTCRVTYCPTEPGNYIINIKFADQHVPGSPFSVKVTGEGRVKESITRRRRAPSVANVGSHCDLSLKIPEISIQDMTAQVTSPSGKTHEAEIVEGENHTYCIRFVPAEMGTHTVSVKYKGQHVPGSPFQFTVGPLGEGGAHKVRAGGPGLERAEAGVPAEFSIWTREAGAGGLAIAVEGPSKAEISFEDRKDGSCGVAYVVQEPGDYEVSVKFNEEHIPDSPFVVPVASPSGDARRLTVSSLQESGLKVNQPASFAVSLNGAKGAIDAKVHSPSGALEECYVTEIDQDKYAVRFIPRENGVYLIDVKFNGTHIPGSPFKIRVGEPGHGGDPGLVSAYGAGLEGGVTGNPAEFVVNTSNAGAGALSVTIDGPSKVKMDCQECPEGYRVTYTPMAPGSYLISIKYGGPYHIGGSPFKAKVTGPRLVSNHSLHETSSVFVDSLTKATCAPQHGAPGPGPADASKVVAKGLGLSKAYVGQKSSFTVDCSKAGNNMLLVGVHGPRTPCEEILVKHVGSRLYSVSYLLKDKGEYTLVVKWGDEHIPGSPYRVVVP

No constants are given. Whether binding was seen depends on the method and setting. Binding seen in cells or lysates may run through a third protein. Some binding calls cover weakened binding; strength is not graded here.

The target of experiment [1] is focal adhesion kinase (human (endogenous in MKN1, A549, GSU, HEK293)) (UniProt Q05397). Briefly: co-IP; anti-FAK antibody (AHO0502, 1.0 ug) on lysate of HEK293 cells transfected with the GRB7-myc/His construct, protein G beads, immunoblots.
Experiment [2] has the same target. Kind of experiment: co-IP; anti-FAK antibody (AHO0502, 1.0 ug) on MKN1 and A549 cell lysates (50 mM Tris, 150 mM NaCl, 1% Triton-X100), overnight, protein G beads, immunoblots; endogenous proteins.
Experiment [3] concerns the target growth factor receptor-bound protein 7 (human (endogenous in GSU)) (UniProt Q14451). Briefly: co-IP; anti-GRB7 antibody (PA5-79323, 1.0 ug) on GSU cell lysate (50 mM Tris, 150 mM NaCl, 1% Triton-X100), overnight, protein G beads, immunoblots; endogenous proteins.

Turning to “GRB7-myc/His (from UniProt Q14451 1-532)”, the binding entry in experiment [1] is on record as “binds”.
“poly-A binding protein cytoplasmic 1 (from UniProt P11940 1-636)”: the binding result in experiment [2] is given as “binds”.
With “focal adhesion kinase (from UniProt Q05397 1-1052)”, the binding result in experiment [3] is reported as “binds”.
Consider Ezrin (from UniProt P15311 1-586), for which the binding result in experiment [2] is given as “binds”.
In the case of filamin A (from UniProt P21333 1-2647), the binding result in experiment [2] is reported as “binds”.
